Test results taken from patent US12398093B2, “Compounds and methods for treating inflammatory disorders” (Board of Supervisors of Louisiana State University and …, priority 2019, dated 2025).

System: C57BL/6J mice
Experiment: Head twitch response (HTR), magnetometer detection
Type: in vivo
Settings: 5-min blocks, 210 min
Description: The head twitch response (HTR) can be used as a behavioral proxy in rodents for human hallucinogenic effects, because it can reliably distinguish hallucinogenic and non-hallucinogenic 5-HT2A receptor agonists. […] HTR studies were conducted with (R)-DOI and 2C-iBu in C57BL/6J mice.
Male C57BL/6J mice (6-8 weeks old) obtained from Jackson Laboratories (Bar Harbor, ME, USA) were housed at up to four per cage in a climate-controlled room on a reverse-light cycle (lights on at 1900 h, off at 0700 h) and were provided with ad libitum access to food and water, except during behavioral testing. Testing was conducted between 1000 and 1800 h.
Drug doses are based on the equivalent freebase weight. […]
The HTR was assessed using a head-mounted magnet and a magnetometer detection coil, according to known methods. […] Mice were injected with drug or vehicle and then HTR activity was recorded in a glass cylinder surrounded by a magnetometer coil. […]
Experiment 1. Five groups of mice (n=6/group, 30 total) were treated with vehicle or R-DOI (0.1, 0.3, 1, or 3 mg/kg) and HTR activity was assessed for 30 minutes. […] Five groups of mice (n=6-7/group, 34 total) were treated with vehicle or 2C-iBu (0.3, 1, 3, or 10 mg/kg) and HTR activity was assessed for 30 minutes. […] Two groups of mice (n=7/group, 14 total) were treated with R-DOI (1 mg/kg) or 2C-iBu (3 mg/kg) and HTR activity was assessed for 210 minutes. […]

SMILES	Time of HTR peak after administration (Experiment 3, 1 mg/kg SC)	Time of HTR peak after administration (Experiment 3, 3 mg/kg SC)
COc1cc(C[C@@H](C)N)c(OC)cc1I [R-DOI]	5 to 10 min	
COc1cc(CC(C)C)c(OC)cc1CCN [2C-iBu, 2,5-dimethoxy-4-isobutylphenethylamine]		20 to 25 min
